The text below walks through data of article doi:10.1101/2020.05.12.092148.

Amino acid sequences for entries named in this document (tags omitted). Chains listed by the source or under a name are the forms on record and can include a tag or linker. Residues count along the entry.
Flag-tagged E-cadherin transmembrane region together with the CT (TM-CT), residues 712-886 (F1PAA9, residues 712-885): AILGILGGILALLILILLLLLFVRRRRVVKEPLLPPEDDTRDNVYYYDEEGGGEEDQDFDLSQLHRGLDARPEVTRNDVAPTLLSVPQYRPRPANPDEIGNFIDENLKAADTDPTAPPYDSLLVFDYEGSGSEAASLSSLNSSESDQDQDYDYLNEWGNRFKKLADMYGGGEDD
Flag-tagged E-cadherin cytosolic C-terminal tail (CT), residues 735-886 (F1PAA9, residues 735-885): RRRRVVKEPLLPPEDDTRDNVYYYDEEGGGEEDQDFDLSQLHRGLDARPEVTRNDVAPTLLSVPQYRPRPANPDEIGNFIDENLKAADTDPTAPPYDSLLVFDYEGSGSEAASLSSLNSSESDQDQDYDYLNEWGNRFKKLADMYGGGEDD

No constants are given. Whether binding was seen depends on the method and setting. Binding seen in cells or lysates may run through a third protein. For some of these results: Where a sequence is shown, tags or fusion partners need not be part of it.

The target of assay [1] is Piezo1-GST fusion protein (Piezo1-pp-GST-IRES-GFP construct) (mouse) (UniProt E2JF22). Put plainly: pull-down.
Assay [2] has as its target T1, purified His-tagged Cap fragment protein of Piezo1 (mouse) (UniProt E2JF22).
T1 sequence: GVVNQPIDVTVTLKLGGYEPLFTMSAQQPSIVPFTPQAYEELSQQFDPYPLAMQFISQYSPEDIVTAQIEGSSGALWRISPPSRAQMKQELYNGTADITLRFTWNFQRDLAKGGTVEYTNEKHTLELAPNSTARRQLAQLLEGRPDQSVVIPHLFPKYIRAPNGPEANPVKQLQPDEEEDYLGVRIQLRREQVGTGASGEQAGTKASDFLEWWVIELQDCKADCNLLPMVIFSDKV
Put plainly: pull-down.

For assay [3], the target named is Flag-tagged E-cadherin cytosolic C-terminal tail (CT), residues 735-886 (canine) (UniProt F1PAA9). Put plainly: co-IP.
Assay [4] concerns the target Flag-tagged E-cadherin transmembrane region together with the CT (TM-CT), residues 712-886 (canine) (UniProt F1PAA9). The experiment in a line: co-IP.

“Flag-tagged E-cadherin cytosolic C-terminal tail (CT), residues 735-886 (from UniProt F1PAA9 735-885) (domain or fragment)”: the binding entry in assay [1] and in assay [2] was “no binding” throughout.

B1: purified His-tagged Cap fragment protein of Piezo1 (domain or fragment, UniProt E2JF22 2218-2453)
chain: GVVNQPIDVTVTLKLGGYEPLFTMSAQQPSIVPFTPQAYEELSQQFDPYPLAMQFISQYSPEDIVTAQIEGSSGALWRISPPSRAQMKQELYNGTADITLRFTWNFQRDLAKGGTVEYTNEKHTLELAPNSTARRQLAQLLEGRPDQSVVIPHLFPKYIRAPNGPEANPVKQLQPDEEEDYLGVRIQLRREQVGTGASGEQAGTKASDFLEWWVIELQDCKADCNLLPMVIFSDKV
B1: the binding result in assay [3] and in assay [4] was “no binding” throughout.
